## Percent effect of library compounds

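Assay of Toxoplasma gondii numbers, read through their beta-galactosidase reporter with a colour substrate. Tested at 50 µM. Higher reads as fewer parasites (inferred from which compounds were picked for retests). About 18,000 compounds were tested under these conditions; 0.94% (about 170) showed 50% or more at least once.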

Results are given as percent effect. The controls that fix the scale are not given in the record; negative values are as filed. Compounds were drawn at random from those tested, without regard to their results.

SMILES	Percent Effect
CN1CC(Nc2ccc(F)cc2C#N)CCC1=O (stereo not shown)	12.07
CC(C)C[C@H](N)CN1CCCC1	18.71
CCCc1noc(C(C)N2CCn3ccnc3C2)n1 (stereo not shown)	-6.287
NC1CCn2cncc21 (stereo not shown)	-3.435
CCOc1ccccc1C(=O)NCCCC(=O)OC	-2.619
CC(C)(C)OC(=O)NCC1CCCNC1 (stereo not shown)	3.384
CCNCc1ccc(C#N)cc1F	2.25
CCOC(=O)c1cnc(SCC(=O)NC2CC2)nc1N	6.401
CS(=O)(=O)N1CCCN(Cc2nccn2C2CC2)CC1	-6.065
CCc1ccc(CCNC(=O)CC2CNCCO2)cc1 (stereo not shown)	6.511
Cc1ccc(-c2[nH][nH]c(=O)c2CCN)cc1	-7.614
CN(C)C(=O)C1CCCN1C(=O)Cc1ccccc1 (stereo not shown)	9.589
CSCc1cc(F)ccc1CNC(=O)[C@H]1CCC(=O)N1	-1.048
Cc1cccc(CCNC(=O)C2=NN(C)C(=O)CC2)c1	-5.037
CN1CCN(C2CCNCC2)C1=O	-6.667
CC(Cn1ccnc1)NC(=O)Cn1cc(Br)ccc1=O (stereo not shown)	-0.567
NC(=O)C1CCCN1S(=O)(=O)Cc1cc(Cl)ccc1F (stereo not shown)	1.267
Cc1ccc(CN(C)C(=O)C2CCCN(C(N)=O)C2)o1 (stereo not shown)	3.878
CC(C)C(=O)NCCCNC(=O)N1CCC=C(Br)C1	-14.19
CC(C)C(N)c1nnc2ccccn12 (stereo not shown)	-9.902
COC(=O)CCCC(=O)Nc1ncc(C)[nH]1	20.33
Cc1cc(CN)[nH]n1	13.72
Cc1sc(-c2ccco2)nc1C(=O)N1CC[C@@H](O)C1	0.08732
COc1c(C)cccc1CN	40.47
O=S(=O)(c1ccc2nsnc2c1)N1CCOCC1	-12.85
COC[C@H]1CC[C@H]1N	2.678
CC(C)NC(=O)CCN(C)C(C)Cc1cnccn1 (stereo not shown)	-5.208
CCS(=O)(=O)N(C)C(=O)CCc1c[nH]c2ccccc12	-28.03
CCCC1CNCCO1 (stereo not shown)	-5.882
CC(C#N)(NC(=O)CSc1nnc(N)s1)C1CC1 (stereo not shown)	-0.8981
COc1ccc2c(c1)CCN2C(=O)C(C)(C)C#N	17.75
CCC=C(C)C(=O)NC1CCN(C(C)=O)CC1	-4.124
NCC1CN(c2nc3cc(Cl)ccc3o2)CCO1 (stereo not shown)	-22.12
CC(C)[C@@H](CO)NCc1ncn(-c2ccccc2)n1	-2.233
CC(C)(C)OC(=O)NCC1CC(N)C1 (stereo not shown)	6.843
Cc1nccn1CCCNC(=O)c1cn(CCN)nn1	-4.047
N#Cc1ccc(OCCCN2CCNC(=O)C2)cc1	-4.757
CN(C)S(=O)(=O)Nc1cccc(C2SCCS2)c1	-5.26
NCc1nc(-c2ccc(F)cc2)c[nH]1	16.13
OCCCNCC(F)(F)F	-2.923
C=C(Cl)CS(=O)(=O)N1CCC(C(=O)N(CC)CC)CC1	0.4294
Cc1nn(CCO)c(NCc2cscn2)c1C	-2.837
O=C(Nc1ccc(F)c(Cl)c1)N1CCC(O)C1 (stereo not shown)	-6.273
N[C@@H]1CCN(Cc2ccc(F)c(C(F)(F)F)c2)C[C@H]1O	24.32
COc1cc(NCCN(C)S(C)(=O)=O)ncn1	0.2879
O=C(Cn1ccnc1)Nc1ccccc1Br	-6.649
NCCOc1cccnc1	-1.961
CNS(=O)(=O)CCNC(=O)CCCc1ccc(Cl)cc1	14.85
Cc1cc(C(=O)Nc2nc(C)no2)[nH]n1	-1.805
O=C(C1CCCOC1)N1CCOc2cccc(F)c21 (stereo not shown)	1.018
CCn1ccnc1C(C)N (stereo not shown)	1.366
CCNC(=O)NC1CCN(CC=C(C)C)CC1	-19.8
Cc1nnc(CN(C)[C@@H]2CNC[C@H]2O)o1	18.85
COC(C(=O)NC1(C)CCOCC1)c1ccccc1 (stereo not shown)	-2.025
COCCCn1ccc(NCc2ncc[nH]2)n1	-1.607
COCC1(CN)CC1	-48.24
O=C(COC(=O)c1ccco1)Nc1ccc(Cl)cn1	7.525
CNS(=O)(=O)c1ccc(C(=O)N2CCCCC2C)o1 (stereo not shown)	-6.528
CC(C)(O)CCc1ccc(CN2CCNC(=O)C2)cc1	-4.805
CN(Cc1ccc(Cl)cc1)C(=O)C1CCNC1 (stereo not shown)	2.007
CCn1ccnc1CNc1ccn(CCCOC)n1	-5.393

Some entries from above, unchanged:

SMILES	Percent Effect
NC(=O)C1CCCN1S(=O)(=O)Cc1cc(Cl)ccc1F (stereo not shown)	1.267
CC(C)(O)CCc1ccc(CN2CCNC(=O)C2)cc1	-4.805
CC(C)[C@@H](CO)NCc1ncn(-c2ccccc2)n1	-2.233
CCn1ccnc1C(C)N (stereo not shown)	1.366
CN(C)S(=O)(=O)Nc1cccc(C2SCCS2)c1	-5.26
CCn1ccnc1CNc1ccn(CCCOC)n1	-5.393
NCc1nc(-c2ccc(F)cc2)c[nH]1	16.13

Source: ChEMBL document CHEMBL3988442, “University of Dundee, Small-Polar-MMV Screening Library” (2021).